# Measurements: the supplement of paper PMC9135407
# Counter-ions that a name gives are not always drawn. ± gives the standard deviation of the averaged measurements. Some of the results follow. Baselines shift from plate to plate; read single values as rough.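 Primary human stellate myofibroblasts activated in culture; inactivation shown by regained lipid droplets. Readout: fraction of Hoechst-counted cells exceeding a per-plate Bodipy threshold, duplicate wells, each plate with DMSO negative and nortriptyline positive controls. Hits: control-normalized score beyond the plate's top-tenth-percentile nortriptyline wells, or among its three best wells. Final well concentrations unstated.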
# Test system: primary human hepatic stellate cells (donor 1)
# Test: percent Bodipy-positive cells; higher = more lipid droplet accumulation
# Conditions: 48 h
# [1] = library stock concentration: 1 mM
# [2] = library stock concentration: 10 mM
# [3] = library stock concentration: 3.33 mM
# [4] = library stock concentration: 80 uM
# [5] = library stock concentration: 400 uM
# [6] = library stock concentration: 2 mM
# [7] = library stock concentration: 4.9 mM
structure (smiles),measurement,setting,value
CCCCCCCCCCCCCCCCCCOC[C@@H](COP(=O)([O-])OCC[N+](C)(C)C)OC [1-Octadecyl-2-methylglycero-3 PC],percent Bodipy-positive cells,[1],9.59 ± 8.9%
CNCCC(Oc1ccc(C(F)(F)F)cc1)c1ccccc1.Cl (stereo not drawn),percent Bodipy-positive cells,[2],98.48 ± 0.42%
CCN1CC(CCN2CCOCC2)C(c2ccccc2)(c2ccccc2)C1=O (stereo not drawn),percent Bodipy-positive cells,library stock concentration: 10.4 mM,9.92 ± 4%
CCN1CC(CCN2CCOCC2)C(c2ccccc2)(c2ccccc2)C1=O (stereo not drawn) [Doxapram HCl],percent Bodipy-positive cells,[3],9.57 ± 1.2%
same,percent Bodipy-positive cells,[2],25.7 ± 4.3%
N[C@@H](C(=O)N[C@@H]1C(=O)N2C(C(=O)O)=C(CSc3cn[nH]n3)CS[C@H]12)c1ccc(O)cc1,percent Bodipy-positive cells,[2],9.33 ± 1.9%
C[C@]12CC[C@@H]3c4cc(O)c(O)cc4CC[C@H]3[C@@H]1CC[C@@H]2O [2-Hydroxyestradiol],percent Bodipy-positive cells,[1],12.9 ± 1.7%
Cc1cnc(CNC(=O)c2c(=O)c3ccc(N4CCCN(C)CC4)nc3n3c2sc2ccccc23)cn1,percent Bodipy-positive cells,[4],38.1 ± 8.9%
same,percent Bodipy-positive cells,[5],33 ± 2.9%
same,percent Bodipy-positive cells,[6],41.8 ± 4.9%
same,percent Bodipy-positive cells,[2],44 ± 3.1%
CN1CCCC(n2nc(Cc3ccc(Cl)cc3)c3ccccc3c2=O)CC1.Cl (stereo not drawn) [Azelastine HCl],percent Bodipy-positive cells,[2],89.5 ± 5.4%
CCC(=O)O[C@]1(C(=O)CCl)[C@@H](C)C[C@H]2[C@@H]3C[C@H](F)C4=CC(=O)C=C[C@]4(C)[C@@]3(F)[C@@H](O)C[C@@]21C [Halobetasol Propionate],percent Bodipy-positive cells,[3],9.77 ± 4.3%
same,percent Bodipy-positive cells,[2],26 ± 7.8%
CC(C)Oc1ccc2c(=O)c3cc(C(=O)O)ccc3oc2c1,percent Bodipy-positive cells,[1],13.8 ± 2.2%
same,percent Bodipy-positive cells,[2],7.25 ± 0.93%
CC(=O)N[C@H]1[C@H]([C@H](O)[C@H](O)CO)OC(C(=O)O)=C[C@@H]1NC(=N)N [Zanamivir],percent Bodipy-positive cells,[3],9.15 ± 6.3%
same,percent Bodipy-positive cells,[2],9.24 ± 0.83%
N=C(N)NCCC[C@H](N)C(=O)O [L-Arginine],percent Bodipy-positive cells,[2],36.6 ± 2.2%
Cc1nc2n(c(=O)c1CCN1CCC(c3noc4cc(F)ccc34)CC1)CCCC2,percent Bodipy-positive cells,[2],24.1 ± 9.4%
Cc1nc2n(c(=O)c1CCN1CCC(c3noc4cc(F)ccc34)CC1)CCCC2 [Risperidone],percent Bodipy-positive cells,,10 ± 5.8%
same,percent Bodipy-positive cells,[3],22.5 ± 1.9%
same,percent Bodipy-positive cells,[7],11.9 ± 1.5%
same,percent Bodipy-positive cells,[2],27.7 ± 2.9%
CNCCC(Oc1ccc(C(F)(F)F)cc1)c1ccccc1 (stereo not drawn) [Fluoxetine hydrochloride],percent Bodipy-positive cells,[2],100%
CNCCC(Oc1ccc(C(F)(F)F)cc1)c1ccccc1 (stereo not drawn) [Fluoxetine],percent Bodipy-positive cells,[2],81.7 ± 16%
C[C@@H](CN1CC(=O)NC(=O)C1)N1CC(=O)NC(=O)C1 [Dexrazoxane hydrochloride],percent Bodipy-positive cells,[2],9.44 ± 0.58%
"C[C@@H](CN1CC(=O)NC(=O)C1)N1CC(=O)NC(=O)C1 [Dexrazoxane HCl (ICRF-187, ADR-529)]",percent Bodipy-positive cells,[3],14.1 ± 3.1%
same,percent Bodipy-positive cells,[2],19.1 ± 4.9%
CC(=O)Nc1ccc(CC(=O)O)cc1,percent Bodipy-positive cells,[2],9.76 ± 3.3%
O=C(O)Cc1sc(-c2ccccc2)nc1-c1ccc(Cl)cc1 [Fentiazac],percent Bodipy-positive cells,library stock concentration: 6.1 mM,10.8 ± 1.6%
CC(=O)OCC(=O)[C@@]12N=C(C)O[C@@H]1C[C@H]1[C@@H]3CCC4=CC(=O)C=C[C@]4(C)[C@H]3[C@@H](O)C[C@@]12C,percent Bodipy-positive cells,[2],28.1 ± 1.4%
CC(=O)OCC(=O)[C@@]12N=C(C)O[C@@H]1C[C@H]1[C@@H]3CCC4=CC(=O)C=C[C@]4(C)[C@H]3[C@@H](O)C[C@@]12C [Deflazacort],percent Bodipy-positive cells,[3],9.17 ± 1.8%
same,percent Bodipy-positive cells,[2],12.7 ± 3.3%
C#CCN1C(C)=C(C(=O)OC)C(c2cccc([N+](=O)[O-])c2)C(C(=O)OCC)=C1C (stereo not drawn),percent Bodipy-positive cells,[2],9.48 ± 0.35%
OCc1cc(C(O)CNCCCCCCOCCCCc2ccccc2)ccc1O (stereo not drawn) [Salmeterol],percent Bodipy-positive cells,,34.8 ± 0.71%
same,percent Bodipy-positive cells,library stock concentration: 4.8 mM,55.7 ± 12%
same,percent Bodipy-positive cells,[2],53.4 ± 1.5%
O=c1c(O)c(-c2ccc(O)c(O)c2)oc2cc(O)c(O)c(O)c12 [Quercetagetin],percent Bodipy-positive cells,[3],9.69 ± 1.6%
CCCCCCCCCCCCCCCCOC[C@H](CO)SC(C)=O [2-thio-Acetyl MAGE],percent Bodipy-positive cells,[1],10.6 ± 4.2%
Cn1nccc1Nc1nccc(-c2ccn([C@H](CO)c3ccc(Cl)c(F)c3)c(=O)c2)n1,percent Bodipy-positive cells,[4],5.94 ± 0.59%
same,percent Bodipy-positive cells,[5],3.84 ± 1.6%
same,percent Bodipy-positive cells,[6],4.64 ± 1.3%
same,percent Bodipy-positive cells,[2],4.88 ± 0.96%
Cl.Cl.Clc1ccccc1CNC[C@H]1CC[C@H](CNCc2ccccc2Cl)CC1,percent Bodipy-positive cells,[2],99.74 ± 0.37%
CC(C)Nc1ncccn1,percent Bodipy-positive cells,[2],32.7 ± 5.9%
CC(C)(C)NC[C@H](O)c1ccc(O)c(CO)c1,percent Bodipy-positive cells,[2],37.8 ± 15%
CCOc1ccccc1OCCN[C@H](C)Cc1ccc(OC)c(S(N)(=O)=O)c1 [Tamsulosin HCl],percent Bodipy-positive cells,[7],7.67 ± 0.71%
CCCSc1ccc2nc(NC(=O)OC)[nH]c2c1 [Albendazole],percent Bodipy-positive cells,[2],89 ± 1.5%
Cn1c(-c2ccc3c(c2)OCO3)cc(=O)c2ccccc21 [Graveoline],percent Bodipy-positive cells,,9.26 ± 1.2%
CCCCCCCCCCCCC[N+](C)(C)Cc1ccccc1 [Benzalkonium chloride],percent Bodipy-positive cells,[2],51.1 ± 4.2%
"CCCCCCCCCCC/C=C\C(C)(C)/C=C\CCCC(=O)O [7,7-Dimethyl-(5Z,8Z)-eicosadienoic acid]",percent Bodipy-positive cells,[2],57.1 ± 4.1%
COc1ccc(Nc2ncnc3ccc(OC)cc23)cc1 [MPMQ hydrochloride],percent Bodipy-positive cells,[2],12 ± 1.3%

# Retrieved one by one from the list above, 4 records:
structure (smiles),measurement,setting,value
CCN1CC(CCN2CCOCC2)C(c2ccccc2)(c2ccccc2)C1=O (stereo not drawn) [Doxapram HCl],percent Bodipy-positive cells,[3],9.57 ± 1.2%
Cn1nccc1Nc1nccc(-c2ccn([C@H](CO)c3ccc(Cl)c(F)c3)c(=O)c2)n1,percent Bodipy-positive cells,[4],5.94 ± 0.59%
N[C@@H](C(=O)N[C@@H]1C(=O)N2C(C(=O)O)=C(CSc3cn[nH]n3)CS[C@H]12)c1ccc(O)cc1,percent Bodipy-positive cells,[2],9.33 ± 1.9%
CCCSc1ccc2nc(NC(=O)OC)[nH]c2c1 [Albendazole],percent Bodipy-positive cells,[2],89 ± 1.5%
